The results in this text go back to paper PMC7247313.

Chains of the proteins cited; added tags and fusions are not shown. Lines headed by an entry give the natural chain unless they say otherwise; changes in a name come on top. A line that says so, or that is headed by a name, gives the form on record, which may keep a tag or linker.
UniProt P60881: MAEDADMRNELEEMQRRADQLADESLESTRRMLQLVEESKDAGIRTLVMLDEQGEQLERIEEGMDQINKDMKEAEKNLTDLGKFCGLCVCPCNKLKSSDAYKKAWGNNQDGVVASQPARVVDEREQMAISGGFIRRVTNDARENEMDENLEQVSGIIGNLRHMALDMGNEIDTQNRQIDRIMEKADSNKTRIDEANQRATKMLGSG
EGFP SNAP25b Δ(101–108) deletion mutant (P60881, form named): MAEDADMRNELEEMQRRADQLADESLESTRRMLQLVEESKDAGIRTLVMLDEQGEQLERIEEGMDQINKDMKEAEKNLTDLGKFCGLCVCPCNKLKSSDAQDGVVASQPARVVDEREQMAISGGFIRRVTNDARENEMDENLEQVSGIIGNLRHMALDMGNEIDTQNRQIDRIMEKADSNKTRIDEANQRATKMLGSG
UniProt Q8IUH5: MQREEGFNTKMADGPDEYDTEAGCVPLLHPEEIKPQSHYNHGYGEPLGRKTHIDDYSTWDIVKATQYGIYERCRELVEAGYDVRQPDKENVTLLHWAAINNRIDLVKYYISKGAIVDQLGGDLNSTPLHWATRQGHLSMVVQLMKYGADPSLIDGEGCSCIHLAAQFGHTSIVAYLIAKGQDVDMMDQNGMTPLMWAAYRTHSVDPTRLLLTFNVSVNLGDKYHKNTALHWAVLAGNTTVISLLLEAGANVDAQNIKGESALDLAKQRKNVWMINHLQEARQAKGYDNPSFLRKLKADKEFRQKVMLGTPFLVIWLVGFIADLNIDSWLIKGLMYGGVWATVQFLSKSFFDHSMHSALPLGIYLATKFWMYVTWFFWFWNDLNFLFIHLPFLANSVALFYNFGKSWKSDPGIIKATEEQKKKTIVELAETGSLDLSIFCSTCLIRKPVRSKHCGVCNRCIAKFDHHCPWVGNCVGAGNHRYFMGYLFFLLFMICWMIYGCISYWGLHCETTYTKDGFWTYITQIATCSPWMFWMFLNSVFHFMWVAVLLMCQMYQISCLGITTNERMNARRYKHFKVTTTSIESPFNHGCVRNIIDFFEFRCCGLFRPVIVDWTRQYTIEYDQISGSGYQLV

Results are given in words; binding and its absence hold for the method and conditions named. Binding seen in cells or lysates may run through a third protein. Some entries that bind do so weakly or less than the wild type.

What all share (test): co-IP; HEK293T cells co-transfected with EGFP-SNAP25 constructs and HA-zDHHC17; lysed in PBS, 0.5% Triton X-100, adjusted to 0.2% Triton X-100; GFP-Trap-agarose beads, 4 °C, 1 h; blots with anti-GFP and anti-HA
For one test, the target named is EGFP SNAP25b WT (rat) (UniProt P60881).
A further test addresses GFP SNAP25b P117G (rat) (UniProt P60881).
Test [1] addresses EGFP SNAP25b Δ(101–108) deletion mutant (rat) (UniProt P60881).

With “HA zDHHC17 (from UniProt Q8IUH5 1-632) (enzyme)”, the binding entry in the test with EGFP SNAP25b WT (rat) is listed as “binds”; with GFP SNAP25b P117G (rat), “no binding”; in test [1], “binds”.
